# Measured data: PubChem BioAssay AID743458 (Peter MacCallum Cancer Centre, 2014)
# Assay: 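Retest earlier hits with independent siRNAs per gene for restoring vorinostat sensitivity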 (follow-up of hits)
# Cell system: human HCT116-VR colon cancer cells made resistant to vorinostat
# Reagents: single siRNA or pool against human genes, 25 nM per single siRNA
# Timing: about 72 h after transfection, including 24 h of drug
# Treatment: vorinostat, 2.5 µM final, for 24 h
# Read-out: 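Cell viability by fluorescence and apoptosis by caspase 3/7 luminescence under vorinostat, background-corrected, averaged across two plate copies and given as fold change versus mock transfection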
# Reading the numbers: viability relative to mock: higher = more living cells than mock; caspase activity relative to mock: higher = more apoptosis than mock
# Rule for the call: 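Active means a reduced-viability or caspase-activation class, anything else inactive; classes could only be given to wells that looked healthy when left untreated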
# Here is an unselected part of about 1,800 deposited reagents. Of all reagents, 732 (41%) were called active. 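Calls are per siRNA reagent; a gene was deemed confirmed only if most of its four siRNAs scored.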 Reagents against one gene are numbered here.
target,reagent no.,viability relative to mock,caspase activity relative to mock,viability hit class,caspase hit class,activity call
TBC1D20,1,0.7,4.73,no change,caspase activation,active
TBC1D20,2,0.66,1.14,no change,no change,inactive
TBC1D20,3,0.38,3.18,reduced viability,caspase activation,active
TBC1D20,4,0.56,3.46,reduced viability,caspase activation,active
RBM42,1,0.56,1.82,reduced viability,no change,active
RBM42,2,0.64,0.7,no change,no change,inactive
RBM42,3,0.52,1.84,reduced viability,no change,active
RBM42,4,0.5,1.52,reduced viability,no change,active
LAMTOR2,1,0.97,1.62,no change,no change,inactive
LAMTOR2,2,0.44,0.68,reduced viability,no change,active
LAMTOR2,3,0.76,0.6,no change,no change,inactive
LAMTOR2,4,0.15,2.77,reduced viability,caspase activation,active
CPSF1,1,0.96,1.52,no change,no change,inactive
CPSF1,2,0.41,2.84,no change,no change,inactive
CPSF1,3,0.73,4.38,no change,caspase activation,active
CPSF1,4,0.88,1.05,no change,no change,inactive
LCE3C,1,1.02,3.71,no change,caspase activation,active
LCE3C,2,0.67,1.97,no change,no change,inactive
LCE3C,3,0.39,2.29,no change,no change,inactive
LCE3C,4,0.67,4.67,no change,caspase activation,active
PSMA7,1,0.3,4.16,reduced viability,caspase activation,active
PSMA7,2,0.36,4.05,reduced viability,caspase activation,active
PSMA7,3,0.23,2.89,reduced viability,caspase activation,active
PSMA7,4,0.39,5.21,reduced viability,caspase activation,active
RPA2,1,0.68,2,no change,no change,inactive
RPA2,2,0.74,4.07,no change,caspase activation,active
RPA2,3,0.58,4.23,no change,caspase activation,active
RPA2,4,0.68,2.05,no change,no change,inactive
RNF186,1,0.61,3.92,no change,caspase activation,active
RNF186,2,0.76,2.42,no change,no change,inactive
RNF186,3,0.88,1.48,no change,no change,inactive
RNF186,4,0.36,2.47,reduced viability,no change,active
DDX18,1,0.46,2.61,reduced viability,caspase activation,active
DDX18,2,0.58,1.58,no change,no change,inactive
DDX18,3,0.54,1.23,reduced viability,no change,active
DDX18,4,0.42,1.64,reduced viability,no change,active
LCE2A,1,0.92,6.5,no change,caspase activation,active
LCE2A,2,0.78,2.34,no change,no change,inactive
LCE2A,3,0.44,4.2,no change,no change,inactive
LCE2A,4,0.74,3.08,no change,caspase activation,active
CHD4,1,0.94,2.13,no change,no change,inactive
CHD4,2,0.98,1,no change,no change,inactive
CHD4,3,0.92,2.17,no change,no change,inactive
CHD4,4,0.98,1.93,no change,no change,inactive
LAD1,1,0.4,5.43,reduced viability,caspase activation,active
LAD1,2,0.36,3.85,reduced viability,caspase activation,active
LAD1,3,0.78,2.83,no change,caspase activation,active
LAD1,4,0.94,1.82,no change,no change,inactive
RBBP9,1,0.18,4.73,reduced viability,caspase activation,active
RBBP9,2,0.94,1.56,no change,no change,inactive
RBBP9,3,0.71,2.53,no change,no change,inactive
RBBP9,4,0.72,1.32,no change,no change,inactive
TRIL,1,0.82,1.16,no change,no change,inactive
TRIL,2,0.7,1.08,no change,no change,inactive
TRIL,3,0.92,2.63,no change,caspase activation,active
TRIL,4,0.62,1.25,no change,no change,inactive
MTF2,1,1.09,2.36,no change,no change,inactive
MTF2,2,0.96,1.19,no change,no change,inactive
MTF2,3,0.88,1.12,no change,no change,inactive
MTF2,4,0.71,2.34,no change,no change,inactive

Entries listed so far whose gene name begins with M or m (4):
target,reagent no.,viability relative to mock,caspase activity relative to mock,viability hit class,caspase hit class,activity call
MTF2,1,1.09,2.36,no change,no change,inactive
MTF2,2,0.96,1.19,no change,no change,inactive
MTF2,3,0.88,1.12,no change,no change,inactive
MTF2,4,0.71,2.34,no change,no change,inactive
